Earlier results, collected in US10907219B2, “Compositions and methods for controlling cellular function” (STC.UNM, priority 2014, dated 2021).
At least one read-out could not be matched to a standard name with certainty.

Settings: cited from earlier work

In the case of `C=C1C[C@]23C[C@@]1(O)CC[C@H]2[C@@]12C=C[C@H](O)[C@@](C)(C(=O)O1)[C@H]2[C@@H]3C(=O)O` [GA, gibberellic acid], the cell permeability is given as “not cell permeable”.
